These are yes or no findings as the source states them, for the method shown. Binding can be weak; no strength is given. For some assays here: Binding seen in cells or lysates may run through a third protein. For some assays here: Where a sequence is shown, tags or fusion partners need not be part of it.
Key:
[1] = target: T1, U1-70K (Arabidopsis thaliana) (UniProt Q42404); test: two-hybrid; Supplementary Fig. 15b, c: DCS1 and mutated DCS1 proteins against DCS5, SKIP, SR45 and U1-70K; yeast two-hybrid is named only for panel a of the same figure
T1 sequence: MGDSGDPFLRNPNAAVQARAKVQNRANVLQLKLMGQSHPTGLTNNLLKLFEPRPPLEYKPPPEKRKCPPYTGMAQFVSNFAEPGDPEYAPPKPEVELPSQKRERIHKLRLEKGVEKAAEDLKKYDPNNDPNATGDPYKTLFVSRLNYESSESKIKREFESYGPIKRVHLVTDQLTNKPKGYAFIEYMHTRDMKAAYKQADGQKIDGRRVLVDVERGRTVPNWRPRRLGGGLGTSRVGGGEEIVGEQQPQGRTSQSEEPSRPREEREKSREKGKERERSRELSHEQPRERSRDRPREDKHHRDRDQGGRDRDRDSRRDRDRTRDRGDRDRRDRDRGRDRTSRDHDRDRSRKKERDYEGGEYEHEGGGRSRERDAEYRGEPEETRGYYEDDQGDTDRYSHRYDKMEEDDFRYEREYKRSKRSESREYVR

Protein sequences, listed by entry. Tags and fused reporters are not part of them. Lines headed by an entry give the natural chain unless they say otherwise; changes in a name come on top.
UniProt O23174: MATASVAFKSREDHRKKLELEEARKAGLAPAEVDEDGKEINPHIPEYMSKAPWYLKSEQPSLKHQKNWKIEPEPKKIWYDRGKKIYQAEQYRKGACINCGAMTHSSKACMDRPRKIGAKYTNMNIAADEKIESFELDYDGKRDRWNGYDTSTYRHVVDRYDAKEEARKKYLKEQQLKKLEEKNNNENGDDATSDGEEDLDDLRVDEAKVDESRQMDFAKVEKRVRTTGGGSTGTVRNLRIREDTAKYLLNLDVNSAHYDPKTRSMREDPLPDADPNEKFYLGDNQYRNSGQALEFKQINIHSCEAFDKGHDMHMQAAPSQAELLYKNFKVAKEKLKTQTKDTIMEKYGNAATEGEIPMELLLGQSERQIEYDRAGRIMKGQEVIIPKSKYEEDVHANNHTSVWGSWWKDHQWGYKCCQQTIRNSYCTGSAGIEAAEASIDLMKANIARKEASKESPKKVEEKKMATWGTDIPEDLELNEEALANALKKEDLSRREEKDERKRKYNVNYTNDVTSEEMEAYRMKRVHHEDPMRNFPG
UniProt F4JXC2: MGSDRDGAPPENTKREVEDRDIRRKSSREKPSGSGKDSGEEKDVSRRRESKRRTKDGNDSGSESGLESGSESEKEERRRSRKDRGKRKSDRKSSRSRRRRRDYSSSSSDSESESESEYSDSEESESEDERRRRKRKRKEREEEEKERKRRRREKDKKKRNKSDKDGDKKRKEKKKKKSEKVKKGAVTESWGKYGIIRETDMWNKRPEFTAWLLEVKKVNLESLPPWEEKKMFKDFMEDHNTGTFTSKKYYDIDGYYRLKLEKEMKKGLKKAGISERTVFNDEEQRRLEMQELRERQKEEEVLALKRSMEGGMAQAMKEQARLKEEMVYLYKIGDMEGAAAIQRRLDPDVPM

[2] = target: T2, SR45 (Arabidopsis thaliana) (UniProt Q9SEE9); test: as above
T2 sequence: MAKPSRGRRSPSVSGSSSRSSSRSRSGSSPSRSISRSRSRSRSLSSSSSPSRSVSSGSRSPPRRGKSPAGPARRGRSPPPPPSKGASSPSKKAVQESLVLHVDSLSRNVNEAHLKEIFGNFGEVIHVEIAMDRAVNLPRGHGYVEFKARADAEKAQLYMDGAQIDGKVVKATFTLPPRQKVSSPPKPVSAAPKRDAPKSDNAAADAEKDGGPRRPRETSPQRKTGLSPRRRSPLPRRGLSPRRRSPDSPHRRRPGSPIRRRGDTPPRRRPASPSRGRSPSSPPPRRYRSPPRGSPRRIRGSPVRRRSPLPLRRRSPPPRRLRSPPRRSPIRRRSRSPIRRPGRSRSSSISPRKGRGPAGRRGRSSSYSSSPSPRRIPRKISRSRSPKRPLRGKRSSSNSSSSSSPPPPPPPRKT

[3] = target: T3, SKIP (Arabidopsis thaliana) (UniProt O80653); test: as above
T3 sequence: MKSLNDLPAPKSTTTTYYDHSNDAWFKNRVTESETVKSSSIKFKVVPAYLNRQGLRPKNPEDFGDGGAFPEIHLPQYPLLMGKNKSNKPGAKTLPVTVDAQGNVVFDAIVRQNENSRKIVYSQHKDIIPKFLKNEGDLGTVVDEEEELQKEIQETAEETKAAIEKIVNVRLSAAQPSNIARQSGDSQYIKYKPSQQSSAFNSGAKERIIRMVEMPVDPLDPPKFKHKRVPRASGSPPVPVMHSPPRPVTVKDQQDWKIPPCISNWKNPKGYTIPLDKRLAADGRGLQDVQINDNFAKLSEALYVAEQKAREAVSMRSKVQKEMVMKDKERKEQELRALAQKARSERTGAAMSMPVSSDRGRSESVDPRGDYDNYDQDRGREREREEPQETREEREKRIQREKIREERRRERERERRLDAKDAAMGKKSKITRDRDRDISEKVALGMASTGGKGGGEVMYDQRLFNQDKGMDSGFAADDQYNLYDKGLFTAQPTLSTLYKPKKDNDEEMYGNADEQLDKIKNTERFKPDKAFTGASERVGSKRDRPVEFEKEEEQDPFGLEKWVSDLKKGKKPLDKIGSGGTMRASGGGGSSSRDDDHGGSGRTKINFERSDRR

[4] = target: T4, COP1 (Arabidopsis thaliana) (UniProt P43254); test: two-hybrid; yeast two-hybrid in yeast cells: DCS proteins, DCS1 parts and mutated DCS1 proteins against COP1 (Fig. 5a, c, e; Supplementary Fig. 15a)
T4 sequence: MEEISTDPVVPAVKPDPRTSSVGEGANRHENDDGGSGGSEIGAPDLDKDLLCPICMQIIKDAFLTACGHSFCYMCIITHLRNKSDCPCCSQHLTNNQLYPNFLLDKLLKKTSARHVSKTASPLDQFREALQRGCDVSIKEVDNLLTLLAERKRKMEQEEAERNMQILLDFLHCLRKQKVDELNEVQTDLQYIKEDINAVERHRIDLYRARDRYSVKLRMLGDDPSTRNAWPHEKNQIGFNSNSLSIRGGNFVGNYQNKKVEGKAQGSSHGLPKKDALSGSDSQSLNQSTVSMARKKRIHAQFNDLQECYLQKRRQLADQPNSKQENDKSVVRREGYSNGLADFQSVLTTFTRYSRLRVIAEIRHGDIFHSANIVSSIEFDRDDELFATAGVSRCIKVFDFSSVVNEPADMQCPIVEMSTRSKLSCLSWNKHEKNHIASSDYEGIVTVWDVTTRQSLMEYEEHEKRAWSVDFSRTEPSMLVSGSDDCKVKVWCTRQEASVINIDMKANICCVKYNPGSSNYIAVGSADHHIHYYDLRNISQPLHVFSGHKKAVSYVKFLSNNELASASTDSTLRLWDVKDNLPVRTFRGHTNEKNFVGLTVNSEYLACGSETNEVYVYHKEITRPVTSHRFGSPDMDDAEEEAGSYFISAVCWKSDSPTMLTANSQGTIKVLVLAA

[5] = target: DCS5 (Arabidopsis thaliana) (UniProt O23174); test: two-hybrid; Supplementary Fig. 15b, c: DCS1 and mutated DCS1 proteins against DCS5, SKIP, SR45 and U1-70K; yeast two-hybrid is named only for panel a of the same figure
[6] = target: T5, COP1-YFP^N (Arabidopsis thaliana) (UniProt P43254); test: split reporter; BiFC in epithelial cells of N. benthamiana leaves, Agrobacterium infiltration, YFP fluorescence by confocal microscopy 48 h after infiltration
T5 sequence: T4 sequence

binding [1] | binding [2] | binding [3] | binding [4] | binding [5] | binding [6] | Substance
binds | binds | binds | no binding | – | – | DCS1-1 (Arabidopsis thaliana)
– | – | – | no binding | – | – | DCS4 (Arabidopsis thaliana)
– | – | – | no binding | – | – | DCS3 (Arabidopsis thaliana)
– | – | – | no binding | – | – | DCS5 (from UniProt O23174)
– | – | – | – | – | binds | DCS1-YFP^C (Arabidopsis thaliana)

Second part, the substance before the results:

Substance | binding [1] | binding [2] | binding [3] | binding [4] | binding [5] | binding [6]
DCS1-3 (Arabidopsis thaliana) | binds | binds | binds | no binding | – | –
DCS1 (Dominant cop1-6 Suppressor 1) (from UniProt F4JXC2) | binds | binds | binds | binds | binds | –
DCS6 (Arabidopsis thaliana) | – | – | – | no binding | – | –
DCS1-2 (Arabidopsis thaliana) | binds | binds | binds | no binding | – | –
DCS2 (Arabidopsis thaliana) | – | – | – | no binding | – | –

From article PMC11180117
